# The supplement of paper PMC8728848
# Some of the results follow.
# B1: Thrombomodulin Lectin (Mus musculus) (protein)
# chain: LSALAKLQPTGSQCVEHECFALFQGPATFLDASQACQRLQGHLMTVRSSVAADVISLLLSQSSMDLGPWIGLQLPQGCDDPVHLGPLRGFQWVTGDNHTSYSRWARPNDQTAPLCGPLCVTVSTATEAAPGEPAWEEKPCETETQGFLCEFYFTASCRVDPIPVREDTKEEEGAGEPPVSPTPGSPTGPPSARPVLDEPRVPITQNPCPPLKECPPCAAPDLEGGPSVFIFPPKIKDVLMISLSPMVTCVVVDVSEDDPDVQISWFVNNVEVHTAQTQTHREDYNSTLRVVSALPIQHQDWMSGKAFACAVNNRALPSPIEKTISKPRGPVRAPQVYVLPPPAEEMTKKEFSLTCMITGFLPAEIAVDWTSNGRTEQNYKNTATVLDSDGSYFMYSKLRVQKSTWERGSLFACSVVHEGLHNHLTTKTISRSLGK
# How the values were obtained:
# Assay in all cases: glycan array binding signal (z-score within array); higher = stronger binding
# Conditions in all cases: glycan notation: IUPAC condensed, linker removed
# [1] = target: Fuc(a1-2)[GalNAc(a1-3)]Gal(b1-3)GlcNAc(b1-6)GalNAc
# How it was run: (§1)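 Glycan array binding is given as a within-array Z-score, which can be read as non-binding when negative. The arrays, 3228 of them, came from the Consortium for Functional Glycomics database and were retained only where the protein sequence was available. Z-scores were averaged across arrays of the same protein sequence at different concentrations or buffers and across linkers.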
# [2] = target: Fuc(a1-2)[GalNAc(a1-3)]Gal(b1-4)Glc
# How it was run: as §1
# [3] = target: Fuc(a1-2)[GalNAc(a1-3)]Gal(b1-4)GlcNAc
# How it was run: as §1
# [4] = target: Fuc(a1-2)[GalNAc(a1-3)]Gal(b1-4)GlcNAc(b1-2)Man
# How it was run: as §1
# [5] = target: Fuc(a1-2)[GalNAc(a1-3)]Gal(b1-4)GlcNAc(b1-2)Man(a1-3)[Fuc(a1-2)[GalNAc(a1-3)]Gal(b1-4)GlcNAc(b1-2)Man(a1-6)]Man(b1-4)GlcNAc(b1-4)GlcNAc
# How it was run: as §1
# [6] = target: Fuc(a1-2)[GalNAc(a1-3)]Gal(b1-4)GlcNAc(b1-2)Man(a1-3)[Fuc(a1-2)[GalNAc(a1-3)]Gal(b1-4)GlcNAc(b1-2)Man(a1-6)]Man(b1-4)GlcNAc(b1-4)[Fuc(a1-6)]GlcNAc
# How it was run: as §1
# [7] = target: Fuc(a1-2)[GalNAc(a1-3)]Gal(b1-4)GlcNAc(b1-3)Gal(b1-4)GlcNAc
# How it was run: as §1
# [8] = target: Fuc(a1-2)[GalNAc(a1-3)]Gal(b1-4)GlcNAc(b1-3)Gal(b1-4)GlcNAc(b1-3)Gal(b1-4)GlcNAc
# How it was run: as §1
# [9] = target: Fuc(a1-2)[GalNAc(a1-3)]Gal(b1-4)GlcNAc(b1-3)GalNAc
# How it was run: as §1
# [10] = target: Fuc(a1-2)[GalNAc(a1-3)]Gal(b1-4)GlcNAc(b1-3)[Fuc(a1-2)[GalNAc(a1-3)]Gal(b1-4)GlcNAc(b1-6)]GalNAc
# How it was run: as §1
# [11] = target: Fuc(a1-2)[GalNAc(a1-3)]Gal(b1-4)GlcNAc(b1-6)GalNAc
# How it was run: as §1
# [12] = target: Fuc(a1-2)[GalNAc(a1-3)]Gal(b1-4)[Fuc(a1-3)]GlcNAc
# How it was run: as §1
# [13] = target: Fuc(a1-2)[GalNAc(a1-3)]Gal(b1-4)[Fuc(a1-3)]GlcNAc(b1-3)GalNAc
# How it was run: as §1
# [14] = target: Fuc(a1-2)[GalNAc(a1-4)]Gal(b1-4)GlcNAc
# How it was run: as §1
# [15] = target: Fuc(a1-2)[GalNAc(b1-3)]Gal
# How it was run: as §1
# Fuc(a1-3)GlcNAc = target: Fuc(a1-3)GlcNAc
# How it was run: as §1
# [16] = target: Fuc(a1-3)[Gal(b1-4)]Glc6S
# How it was run: as §1
# [17] = target: Fuc(a1-3)[Gal(b1-4)]GlcNAc
# How it was run: as §1
# [18] = target: Fuc(a1-3)[Gal(b1-4)]GlcNAc(b1-2)Man
# How it was run: as §1
# [19] = target: Fuc(a1-3)[Gal(b1-4)]GlcNAc(b1-2)Man(a1-3)[Fuc(a1-3)[Gal(b1-4)]GlcNAc(b1-2)Man(a1-6)]Man(b1-4)GlcNAc(b1-4)GlcNAc
# How it was run: as §1
# [20] = target: Fuc(a1-3)[Gal(b1-4)]GlcNAc(b1-2)Man(a1-3)[Fuc(a1-3)[Gal(b1-4)]GlcNAc(b1-2)Man(a1-6)]Man(b1-4)GlcNAc(b1-4)[Fuc(a1-6)]GlcNAc
# How it was run: as §1
# [21] = target: Fuc(a1-3)[Gal(b1-4)]GlcNAc(b1-3)Gal(b1-3)[Fuc(a1-4)]GlcNAc
# How it was run: as §1
# [22] = target: Fuc(a1-3)[Gal(b1-4)]GlcNAc(b1-3)Gal(b1-4)[Fuc(a1-3)]GlcNAc
# How it was run: as §1
# [23] = target: Fuc(a1-3)[Gal(b1-4)]GlcNAc(b1-3)Gal(b1-4)[Fuc(a1-3)]GlcNAc(b1-3)Gal(b1-4)[Fuc(a1-3)]GlcNAc
# How it was run: as §1
# [24] = target: Fuc(a1-3)[Gal(b1-4)]GlcNAc(b1-3)GalNAc
# How it was run: as §1
# [25] = target: Fuc(a1-3)[Gal(b1-4)]GlcNAc(b1-6)GalNAc
# How it was run: as §1
# [26] = target: Fuc(a1-3)[Gal(b1-4)]GlcNAc(b1-6)[Gal(b1-3)GlcNAc(b1-3)]Gal(b1-4)Glc
# How it was run: as §1
# [27] = target: Fuc(a1-3)[Gal(b1-4)]GlcNAc6S
# How it was run: as §1
# [28] = target: Fuc(a1-3)[Gal3S(b1-4)]Glc
# How it was run: as §1
# [29] = target: Fuc(a1-3)[Gal3S(b1-4)]GlcNAc
# How it was run: as §1
# [30] = target: Fuc(a1-3)[Gal3S(b1-4)]GlcNAc6S
# How it was run: as §1
# [31] = target: Fuc(a1-3)[GalNAc(b1-4)]GlcNAc
# How it was run: as §1
# [32] = target: Fuc(a1-3)[GalNAc(b1-4)]GlcNAc6S
# How it was run: as §1
# Fuc(a1-4)GlcNAc = target: Fuc(a1-4)GlcNAc
# How it was run: as §1
# Fuc(b1-3)GlcNAc = target: Fuc(b1-3)GlcNAc
# How it was run: as §1
# Gal(a1-2)Gal = target: Gal(a1-2)Gal
# How it was run: as §1
# Gal(a1-3)Gal = target: Gal(a1-3)Gal
# How it was run: as §1
# Gal(a1-3)Gal(b1-3)GlcNAc = target: Gal(a1-3)Gal(b1-3)GlcNAc
# How it was run: as §1
# [33] = target: Gal(a1-3)Gal(b1-3)GlcNAc(b1-2)Man
# How it was run: as §1
# [34] = target: Gal(a1-3)Gal(b1-3)GlcNAc(b1-2)Man(a1-3)[Gal(a1-3)Gal(b1-3)GlcNAc(b1-2)Man(a1-6)]Man(b1-4)GlcNAc(b1-4)GlcNAc
# How it was run: as §1
# [35] = target: Gal(a1-3)Gal(b1-3)GlcNAc(b1-3)GalNAc
# How it was run: as §1
# [36] = target: Gal(a1-3)Gal(b1-3)GlcNAc(b1-6)GalNAc
# How it was run: as §1
# [37] = target: Gal(a1-3)Gal(b1-3)[Fuc(a1-4)]GlcNAc(b1-2)Man(a1-3)[Gal(a1-3)Gal(b1-3)[Fuc(a1-4)]GlcNAc(b1-2)Man(a1-6)]Man(b1-4)GlcNAc(b1-4)GlcNAc
# How it was run: as §1
# Gal(a1-3)Gal(b1-4)Glc = target: Gal(a1-3)Gal(b1-4)Glc
# How it was run: as §1
# Gal(a1-3)Gal(b1-4)GlcNAc = target: Gal(a1-3)Gal(b1-4)GlcNAc
# How it was run: as §1
binder,measurement,setting,value
B1,glycan array binding signal (z-score),[1],-1.94
same,glycan array binding signal (z-score),[2],-0.508
same,glycan array binding signal (z-score),[3],-1.21
same,glycan array binding signal (z-score),[4],-0.226
same,glycan array binding signal (z-score),[5],0.56
same,glycan array binding signal (z-score),[6],1.21
same,glycan array binding signal (z-score),[7],-1.04
same,glycan array binding signal (z-score),[8],1.48
same,glycan array binding signal (z-score),[9],-0.216
same,glycan array binding signal (z-score),[10],0.514
same,glycan array binding signal (z-score),[11],-0.968
same,glycan array binding signal (z-score),[12],-0.327
same,glycan array binding signal (z-score),[13],1.49
same,glycan array binding signal (z-score),[14],0.779
same,glycan array binding signal (z-score),[15],-0.47
same,glycan array binding signal (z-score),Fuc(a1-3)GlcNAc,-0.801
same,glycan array binding signal (z-score),[16],-0.024
same,glycan array binding signal (z-score),[17],-0.036
same,glycan array binding signal (z-score),[18],-1.06
same,glycan array binding signal (z-score),[19],-0.81
same,glycan array binding signal (z-score),[20],0.391
same,glycan array binding signal (z-score),[21],-1.17
same,glycan array binding signal (z-score),[22],-0.871
same,glycan array binding signal (z-score),[23],0.223
same,glycan array binding signal (z-score),[24],-0.437
same,glycan array binding signal (z-score),[25],-1.39
same,glycan array binding signal (z-score),[26],0.613
same,glycan array binding signal (z-score),[27],0.604
same,glycan array binding signal (z-score),[28],-0.048
same,glycan array binding signal (z-score),[29],-0.275
same,glycan array binding signal (z-score),[30],-2.09
same,glycan array binding signal (z-score),[31],0.174
same,glycan array binding signal (z-score),[32],-0.379
same,glycan array binding signal (z-score),Fuc(a1-4)GlcNAc,-0.618
same,glycan array binding signal (z-score),Fuc(b1-3)GlcNAc,0.263
same,glycan array binding signal (z-score),Gal(a1-2)Gal,-0.433
same,glycan array binding signal (z-score),Gal(a1-3)Gal,1.79
same,glycan array binding signal (z-score),Gal(a1-3)Gal(b1-3)GlcNAc,0.029
same,glycan array binding signal (z-score),[33],-0.553
same,glycan array binding signal (z-score),[34],0.4
same,glycan array binding signal (z-score),[35],-0.619
same,glycan array binding signal (z-score),[36],0.696
same,glycan array binding signal (z-score),[37],1.1
same,glycan array binding signal (z-score),Gal(a1-3)Gal(b1-4)Glc,0.642
same,glycan array binding signal (z-score),Gal(a1-3)Gal(b1-4)GlcNAc,1.5

# Three entries drawn at random from the list so far, as already listed:
binder,measurement,setting,value
B1,glycan array binding signal (z-score),[15],-0.47
same,glycan array binding signal (z-score),[29],-0.275
same,glycan array binding signal (z-score),[19],-0.81
